Assay results from article PMC5996148.
The other results are listed elsewhere or left out. For some of these results: The exact form of the protein is not confirmed.

The chains behind the UniProt entries cited, without tags or fusion partners. Where a name states a change or a piece, a line headed by the entry shows the natural chain unless it says otherwise.
UniProt Q6P597: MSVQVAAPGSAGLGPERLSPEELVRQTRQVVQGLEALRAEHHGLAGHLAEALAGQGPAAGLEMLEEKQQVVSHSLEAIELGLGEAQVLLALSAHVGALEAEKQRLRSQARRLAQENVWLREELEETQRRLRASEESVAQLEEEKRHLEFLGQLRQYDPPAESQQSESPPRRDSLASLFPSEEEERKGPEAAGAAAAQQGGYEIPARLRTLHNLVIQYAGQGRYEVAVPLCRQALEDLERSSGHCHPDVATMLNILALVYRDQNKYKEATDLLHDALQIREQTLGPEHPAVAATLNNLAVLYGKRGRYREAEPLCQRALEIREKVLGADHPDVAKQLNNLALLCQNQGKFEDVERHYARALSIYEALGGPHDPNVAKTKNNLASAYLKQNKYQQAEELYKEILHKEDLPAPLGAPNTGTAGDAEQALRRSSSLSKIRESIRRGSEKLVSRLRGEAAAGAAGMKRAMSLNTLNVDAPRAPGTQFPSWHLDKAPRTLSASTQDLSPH
UniProt Q9NSK0: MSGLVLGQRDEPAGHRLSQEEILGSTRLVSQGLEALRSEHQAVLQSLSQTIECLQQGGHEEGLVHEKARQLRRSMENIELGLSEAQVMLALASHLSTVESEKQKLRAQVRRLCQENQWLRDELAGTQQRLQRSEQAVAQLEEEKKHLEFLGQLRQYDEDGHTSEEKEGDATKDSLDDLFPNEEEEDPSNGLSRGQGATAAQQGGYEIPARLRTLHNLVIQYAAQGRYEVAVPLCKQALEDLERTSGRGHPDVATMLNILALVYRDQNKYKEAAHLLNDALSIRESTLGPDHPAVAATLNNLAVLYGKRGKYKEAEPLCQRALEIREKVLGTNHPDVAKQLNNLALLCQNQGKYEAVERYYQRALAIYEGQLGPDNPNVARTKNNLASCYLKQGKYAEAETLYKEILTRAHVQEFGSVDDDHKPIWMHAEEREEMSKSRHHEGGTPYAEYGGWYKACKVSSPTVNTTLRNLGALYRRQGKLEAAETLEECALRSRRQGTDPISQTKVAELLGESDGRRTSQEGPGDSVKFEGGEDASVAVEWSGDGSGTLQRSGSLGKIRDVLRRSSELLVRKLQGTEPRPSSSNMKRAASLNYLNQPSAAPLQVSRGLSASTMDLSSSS
UniProt Q8TBB5: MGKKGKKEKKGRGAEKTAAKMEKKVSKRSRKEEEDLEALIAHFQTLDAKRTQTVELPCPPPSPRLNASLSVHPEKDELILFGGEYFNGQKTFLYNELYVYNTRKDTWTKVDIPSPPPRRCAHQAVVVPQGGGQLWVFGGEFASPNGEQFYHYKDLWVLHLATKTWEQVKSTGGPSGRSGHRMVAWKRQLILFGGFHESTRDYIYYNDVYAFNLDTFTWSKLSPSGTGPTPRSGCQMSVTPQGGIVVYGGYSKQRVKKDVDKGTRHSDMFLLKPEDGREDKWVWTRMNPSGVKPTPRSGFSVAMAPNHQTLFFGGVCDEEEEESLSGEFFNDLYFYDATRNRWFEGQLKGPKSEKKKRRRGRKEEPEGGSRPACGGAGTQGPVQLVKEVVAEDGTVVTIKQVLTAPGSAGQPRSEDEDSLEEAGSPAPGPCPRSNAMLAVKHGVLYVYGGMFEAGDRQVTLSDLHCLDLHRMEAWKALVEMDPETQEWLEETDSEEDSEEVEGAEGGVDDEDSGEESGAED
UniProt Q13601: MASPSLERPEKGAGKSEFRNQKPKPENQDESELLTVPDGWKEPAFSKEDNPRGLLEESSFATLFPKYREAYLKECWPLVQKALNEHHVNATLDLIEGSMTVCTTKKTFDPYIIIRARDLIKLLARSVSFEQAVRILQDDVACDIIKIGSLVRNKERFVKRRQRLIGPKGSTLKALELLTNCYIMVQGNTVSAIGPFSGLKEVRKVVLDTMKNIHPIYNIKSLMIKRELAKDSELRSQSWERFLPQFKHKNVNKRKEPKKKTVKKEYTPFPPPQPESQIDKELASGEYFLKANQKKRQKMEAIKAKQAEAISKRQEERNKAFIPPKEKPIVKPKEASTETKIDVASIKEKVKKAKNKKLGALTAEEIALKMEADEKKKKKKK

How the values were obtained:
Assay in all cases: protein microarray (ProtoArray v5.0), streptavidin-Alexa Fluor 647
Conditions in all cases: 3'-biotin; 20 mM Tris (pH 7.5), 5 mM MgCl2, 100 mM KCl, 0.1% Tween-20, A/T-rich and random oligonucleotide blockers; temperature not stated; high values mean tight binding
KLC3 = KLC3 (UniProt Q6P597)
KLC4 = KLC4 (UniProt Q9NSK0)
KLHDC4 = KLHDC4 (UniProt Q8TBB5)
KLHL20 (human) = system: KLHL20 (human)
KLHL32 (human) = system: KLHL32 (human)
KLK1 (human) = system: KLK1 (human)
KLK7 (human) = system: KLK7 (human)
KLK9 (human) = system: KLK9 (human)
KRAS (human) = system: KRAS (human)
KRR1 = KRR1 (UniProt Q13601)

Q: Which results are given for “GGTGACAGGGGTATGGGGAGGGG [G4-2 biotinylated (Ct1)]”?
A: binding signal (KLC3): -0.376 z-score; binding signal (KLC4): -0.396 z-score; binding signal (KLHDC4): 3.17 z-score; binding signal (KLHL20 (human)): -0.386 z-score; binding signal (KLHL32 (human)): -0.403 z-score; binding signal (KLK1 (human)): -0.374 z-score; binding signal (KLK7 (human)): -0.366 z-score; binding signal (KLK9 (human)): -0.385 z-score; binding signal (KRAS (human)): -0.383 z-score; binding signal (KRR1): 6.5 z-score
